According to the supplement of paper PMC8612539:
Converted amounts (≈) assume the structure as drawn. Further values from the same series stand in other lists.

Key:
Pasteurella multocida = test: minimum inhibitory concentration (MIC)
Experimental: (§1)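 Broth microdilution MIC (Sensititre BOPO7F bovine plate, CLSI methods) of 19 antimicrobials against field isolates of P. multocida, M. haemolytica, H. somni (deep nasopharyngeal swabs) and E. coli, Enterococcus spp. (rectal swabs) from weaned dairy heifers. Incubation 16-24 h at 35 C. MIC is the lowest concentration preventing visible growth. Values with <= or > lie at the tested range limits. Trimethoprim-sulfamethoxazole is given as the trimethoprim component of a 1:19 mixture.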

Mannheimia haemolytica = test: minimum inhibitory concentration (MIC)
Experimental: as §1

CC1(C)S[C@@H]2[C@H](NC(=O)Cc3ccccc3)C(=O)N2[C@H]1C(=O)O [Penicillin]
minimum inhibitory concentration [µg/mL]
Settings | Mannheimia haemolytica | Pasteurella multocida
isolate (source animal id): 3 | 0.25 (≈ 0.748 µM) | –
isolate (source animal id): 30 | – | ≤ 0.12
isolate (source animal id): 34 | – | ≤ 0.12
isolate (source animal id): 36 | – | ≤ 0.12
isolate (source animal id): 37 | – | 0.25 (≈ 0.748 µM)
isolate (source animal id): 46 | – | ≤ 0.12
isolate (source animal id): 48 | – | ≤ 0.12
isolate (source animal id): 49 | – | 0.25 (≈ 0.748 µM)
isolate (source animal id): 54 | – | 0.25 (≈ 0.748 µM)
isolate (source animal id): 55 | – | ≤ 0.12
isolate (source animal id): 58 | – | 0.25 (≈ 0.748 µM)
isolate (source animal id): 60 | 0.25 (≈ 0.748 µM) | 0.25 (≈ 0.748 µM)
isolate (source animal id): 61 | > 8 | > 8
isolate (source animal id): 63 | – | 0.25 (≈ 0.748 µM)
isolate (source animal id): 64 | 0.25 (≈ 0.748 µM) | 0.25 (≈ 0.748 µM)
isolate (source animal id): 65 | > 8 | > 8
isolate (source animal id): 66 | 0.25 (≈ 0.748 µM) | 0.25 (≈ 0.748 µM)
isolate (source animal id): 67 | 0.25 (≈ 0.748 µM) | 0.25 (≈ 0.748 µM)
isolate (source animal id): 68 | 0.25 (≈ 0.748 µM) | –
isolate (source animal id): 69 | – | ≤ 0.12
isolate (source animal id): 70 | 0.5 (≈ 1.5 µM) | –
isolate (source animal id): 72 | 0.25 (≈ 0.748 µM) | –
isolate (source animal id): 73 | – | 0.25 (≈ 0.748 µM)
isolate (source animal id): 74 | > 8 | –
isolate (source animal id): 75 | – | 0.25 (≈ 0.748 µM)
isolate (source animal id): 76 | ≤ 0.12 | ≤ 0.12
isolate (source animal id): 77 | – | ≤ 0.12
isolate (source animal id): 78 | – | ≤ 0.12
isolate (source animal id): 80 | > 8 | ≤ 0.12
isolate (source animal id): 82 | 0.25 (≈ 0.748 µM) | 0.25 (≈ 0.748 µM)
isolate (source animal id): 83 | 0.5 (≈ 1.5 µM) | ≤ 0.12
isolate (source animal id): 84 | 0.5 (≈ 1.5 µM) | –
isolate (source animal id): 85 | ≤ 0.12 | –
isolate (source animal id): 86 | ≤ 0.12 | –
isolate (source animal id): 87 | ≤ 0.12 | –
isolate (source animal id): 88 | – | ≤ 0.12
isolate (source animal id): 92 | – | ≤ 0.12
isolate (source animal id): 94 | – | ≤ 0.12
isolate (source animal id): 318 | – | 0.25 (≈ 0.748 µM)
isolate (source animal id): 319 | – | 0.25 (≈ 0.748 µM)
isolate (source animal id): 320 | – | 0.25 (≈ 0.748 µM)
isolate (source animal id): 321 | – | 0.25 (≈ 0.748 µM)
isolate (source animal id): 322 | – | ≤ 0.12
isolate (source animal id): 324 | – | 0.25 (≈ 0.748 µM)
isolate (source animal id): 325 | – | ≤ 0.12
isolate (source animal id): 328 | – | ≤ 0.12
isolate (source animal id): 330 | – | 0.25 (≈ 0.748 µM)
isolate (source animal id): 331 | – | ≤ 0.12
isolate (source animal id): 333 | – | 0.25 (≈ 0.748 µM)
isolate (source animal id): 336 | – | ≤ 0.12
isolate (source animal id): 337 | – | ≤ 0.12
isolate (source animal id): 339 | – | 0.25 (≈ 0.748 µM)
isolate (source animal id): 340 | – | 0.25 (≈ 0.748 µM)
isolate (source animal id): 341 | – | 0.25 (≈ 0.748 µM)

CO/N=C(\C(=O)N[C@@H]1C(=O)N2C(C(=O)O)=C(CSC(=O)c3ccco3)CS[C@H]12)c1csc(N)n1 [Ceftiofur]
minimum inhibitory concentration [µg/mL]
Settings | Mannheimia haemolytica | Pasteurella multocida
isolate (source animal id): 3 | ≤ 0.25 | –
isolate (source animal id): 30 | – | ≤ 0.25
isolate (source animal id): 34 | – | ≤ 0.25
isolate (source animal id): 36 | – | ≤ 0.25
isolate (source animal id): 37 | – | ≤ 0.25
isolate (source animal id): 46 | – | ≤ 0.25
isolate (source animal id): 48 | – | ≤ 0.25
isolate (source animal id): 49 | – | ≤ 0.25
isolate (source animal id): 54 | – | ≤ 0.25
isolate (source animal id): 55 | – | ≤ 0.25
isolate (source animal id): 58 | – | ≤ 0.25
isolate (source animal id): 60 | ≤ 0.25 | ≤ 0.25
isolate (source animal id): 61 | ≤ 0.25 | ≤ 0.25
isolate (source animal id): 63 | – | ≤ 0.25
isolate (source animal id): 64 | ≤ 0.25 | ≤ 0.25
isolate (source animal id): 65 | ≤ 0.25 | ≤ 0.25
isolate (source animal id): 66 | ≤ 0.25 | ≤ 0.25
isolate (source animal id): 67 | ≤ 0.25 | ≤ 0.25
isolate (source animal id): 68 | ≤ 0.25 | –
isolate (source animal id): 69 | – | ≤ 0.25
isolate (source animal id): 70 | ≤ 0.25 | –
isolate (source animal id): 72 | ≤ 0.25 | –
isolate (source animal id): 73 | – | ≤ 0.25
isolate (source animal id): 74 | ≤ 0.25 | –
isolate (source animal id): 75 | – | ≤ 0.25
isolate (source animal id): 76 | ≤ 0.25 | ≤ 0.25
isolate (source animal id): 77 | – | ≤ 0.25
isolate (source animal id): 78 | – | ≤ 0.25
isolate (source animal id): 80 | ≤ 0.25 | ≤ 0.25
isolate (source animal id): 82 | ≤ 0.25 | ≤ 0.25
isolate (source animal id): 83 | ≤ 0.25 | ≤ 0.25
isolate (source animal id): 84 | ≤ 0.25 | –
isolate (source animal id): 85 | ≤ 0.25 | –
isolate (source animal id): 86 | ≤ 0.25 | –
isolate (source animal id): 87 | ≤ 0.25 | –
isolate (source animal id): 88 | – | ≤ 0.25
isolate (source animal id): 92 | – | ≤ 0.25
isolate (source animal id): 94 | – | ≤ 0.25
isolate (source animal id): 318 | – | ≤ 0.25
isolate (source animal id): 319 | – | ≤ 0.25
isolate (source animal id): 320 | – | ≤ 0.25
isolate (source animal id): 321 | – | ≤ 0.25
isolate (source animal id): 322 | – | ≤ 0.25
isolate (source animal id): 324 | – | ≤ 0.25
isolate (source animal id): 325 | – | ≤ 0.25
isolate (source animal id): 328 | – | ≤ 0.25
isolate (source animal id): 330 | – | ≤ 0.25
isolate (source animal id): 331 | – | ≤ 0.25
isolate (source animal id): 333 | – | ≤ 0.25
isolate (source animal id): 336 | – | ≤ 0.25
isolate (source animal id): 337 | – | ≤ 0.25
isolate (source animal id): 339 | – | ≤ 0.25
isolate (source animal id): 340 | – | ≤ 0.25
isolate (source animal id): 341 | – | ≤ 0.25

CN[C@@H]1[C@H](O)[C@H](NC)[C@H]2O[C@@]3(O)C(=O)C[C@@H](C)O[C@H]3O[C@@H]2[C@H]1O [Spectinomycin]
minimum inhibitory concentration [µg/mL]
Settings | Mannheimia haemolytica | Pasteurella multocida
isolate (source animal id): 3 | 32 (≈ 96.3 µM) | –
isolate (source animal id): 30 | – | 32 (≈ 96.3 µM)
isolate (source animal id): 34 | – | 16 (≈ 48.1 µM)
isolate (source animal id): 36 | – | 32 (≈ 96.3 µM)
isolate (source animal id): 37 | – | 32 (≈ 96.3 µM)
isolate (source animal id): 46 | – | 16 (≈ 48.1 µM)
isolate (source animal id): 48 | – | 32 (≈ 96.3 µM)
isolate (source animal id): 49 | – | 32 (≈ 96.3 µM)
isolate (source animal id): 54 | – | 32 (≈ 96.3 µM)
isolate (source animal id): 55 | – | 32 (≈ 96.3 µM)
isolate (source animal id): 58 | – | 32 (≈ 96.3 µM)
isolate (source animal id): 60 | > 64 | 32 (≈ 96.3 µM)
isolate (source animal id): 61 | 32 (≈ 96.3 µM) | 32 (≈ 96.3 µM)
isolate (source animal id): 63 | – | 32 (≈ 96.3 µM)
isolate (source animal id): 64 | 32 (≈ 96.3 µM) | 32 (≈ 96.3 µM)
isolate (source animal id): 65 | 32 (≈ 96.3 µM) | 16 (≈ 48.1 µM)
isolate (source animal id): 66 | > 64 | > 64
isolate (source animal id): 67 | 16 (≈ 48.1 µM) | 32 (≈ 96.3 µM)
isolate (source animal id): 68 | 32 (≈ 96.3 µM) | –
isolate (source animal id): 69 | – | 32 (≈ 96.3 µM)
isolate (source animal id): 70 | > 64 | –
isolate (source animal id): 72 | 32 (≈ 96.3 µM) | –
isolate (source animal id): 73 | – | 32 (≈ 96.3 µM)
isolate (source animal id): 74 | 32 (≈ 96.3 µM) | –
isolate (source animal id): 75 | – | 32 (≈ 96.3 µM)
isolate (source animal id): 76 | 32 (≈ 96.3 µM) | 32 (≈ 96.3 µM)
isolate (source animal id): 77 | – | 16 (≈ 48.1 µM)
isolate (source animal id): 78 | – | 32 (≈ 96.3 µM)
isolate (source animal id): 80 | > 64 | 32 (≈ 96.3 µM)
isolate (source animal id): 82 | > 64 | 32 (≈ 96.3 µM)
isolate (source animal id): 83 | 32 (≈ 96.3 µM) | 32 (≈ 96.3 µM)
isolate (source animal id): 84 | 32 (≈ 96.3 µM) | –
isolate (source animal id): 85 | > 64 | –
isolate (source animal id): 86 | > 64 | –
isolate (source animal id): 87 | > 64 | –
isolate (source animal id): 88 | – | > 64
isolate (source animal id): 92 | – | 16 (≈ 48.1 µM)
isolate (source animal id): 94 | – | 32 (≈ 96.3 µM)
isolate (source animal id): 318 | – | 32 (≈ 96.3 µM)
isolate (source animal id): 319 | – | 32 (≈ 96.3 µM)
isolate (source animal id): 320 | – | 16 (≈ 48.1 µM)
isolate (source animal id): 321 | – | 16 (≈ 48.1 µM)
isolate (source animal id): 322 | – | 16 (≈ 48.1 µM)
isolate (source animal id): 324 | – | 16 (≈ 48.1 µM)
isolate (source animal id): 325 | – | 16 (≈ 48.1 µM)
isolate (source animal id): 328 | – | 16 (≈ 48.1 µM)
isolate (source animal id): 330 | – | 16 (≈ 48.1 µM)
isolate (source animal id): 331 | – | 16 (≈ 48.1 µM)
isolate (source animal id): 333 | – | 16 (≈ 48.1 µM)
isolate (source animal id): 336 | – | ≤ 8
isolate (source animal id): 337 | – | 16 (≈ 48.1 µM)
isolate (source animal id): 339 | – | 16 (≈ 48.1 µM)
isolate (source animal id): 340 | – | 16 (≈ 48.1 µM)
isolate (source animal id): 341 | – | 16 (≈ 48.1 µM)
